# Measurements reported in the supplement of paper PMC4635364.
# This is one part of the list. Single values are uncertain here, since repeats match poorly.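 ReNCell VM, a human fetal ventral-midbrain neural progenitor line, was differentiated without mitogens. Blinded raters scored images stained for doublecortin (early neurons) or tyrosine hydroxylase (dopaminergic neurons) against untreated wells (0 = no change). Scores were averaged across repeats and both raters, and compounds averaging 2 or more were selected as hits for retesting.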
# What was measured:
# [1] = test system: ReNCell VM; assay: neuronal differentiation score (DCX+ cell fraction vs untreated, manual image score) (score (-3 to 3)); higher = more neuronal differentiation; details: 2 uM, 2 weeks
# [2] = test system: ReNCell VM; assay: dopaminergic neuron differentiation score (TH+ cell fraction vs untreated, manual image score) (score (0 to 3)); higher = more TH+ dopaminergic neuron differentiation; details: 2 uM, 4 weeks, BDNF 10 ng/ml + GDNF 10 ng/ml
smiles,measurement,setting,value
C[C@]12C=CC(=O)C=C1CC[C@@H]1[C@@H]2[C@@H](O)C[C@@]2(C)[C@H]1CC[C@]2(O)C(=O)COP(=O)(O)O,neuronal differentiation score,[1]; library: Spectrum,inactive: 0
same,dopaminergic neuron differentiation score,[2]; library: Spectrum,inactive: 0
CC(C)NCC(O)COc1cccc2[nH]ccc12 (stereo unspecified),neuronal differentiation score,[1]; library: Spectrum,inactive: 0
same,dopaminergic neuron differentiation score,[2]; library: Spectrum,inactive: 0
CCN1CCCC1CNC(=O)c1cc(S(N)(=O)=O)ccc1OC (stereo unspecified) [Sulpiride],neuronal differentiation score,[1]; library: Prestwick,inactive: 0
same,dopaminergic neuron differentiation score,[2]; library: Prestwick,inactive: 0
CC(C)(C#N)c1cc(Cn2cncn2)cc(C(C)(C)C#N)c1,neuronal differentiation score,[1]; library: Spectrum,inactive: 0
same,dopaminergic neuron differentiation score,[2]; library: Spectrum,inactive: 0
Cc1cn(C2OC[C@@H](O)[C@@H]2CO)c(=O)[nH]c1=O (stereo partly specified),neuronal differentiation score,[1]; library: Natural,inactive: 0
same,dopaminergic neuron differentiation score,[2]; library: Natural,inactive: 0
CCCCNc1ccc(C(=O)OCCN(C)C)cc1,neuronal differentiation score,[1]; library: Spectrum,inactive: 0
same,dopaminergic neuron differentiation score,[2]; library: Spectrum,inactive: 0
COc1c2c(nc3occc13)C(CC=C(C)C)(OC)C(=O)C=C2 (stereo unspecified) [perfamine],neuronal differentiation score,[1]; library: Natural,inactive: 0
same,dopaminergic neuron differentiation score,[2]; library: Natural,inactive: 0
"Cc1n[nH]c(=O)[nH]c1=O [Azathymine, 6]",neuronal differentiation score,[1]; library: Phytochemical,inactive: 0
same,dopaminergic neuron differentiation score,[2]; library: Phytochemical,inactive: 0
COC(=O)c1c(C)cc(OC(=O)c2c(C)cc(O)c(C=O)c2O)c(C)c1O [Atranorin],neuronal differentiation score,[1]; library: Phytochemical,inactive: 0
same,dopaminergic neuron differentiation score,[2]; library: Phytochemical,inactive: 0
CC(=O)NCCc1ccc(O)c(-c2c(O)c(O)c3c(c2O)C(=O)c2c(cc(O)c(C(=O)O)c2C(=O)O)C3=O)c1,neuronal differentiation score,[1]; library: Spectrum,inactive: 0
same,dopaminergic neuron differentiation score,[2]; library: Spectrum,inactive: 0
CN/C(=N\CCSCc1nc[nH]c1C)NC#N,neuronal differentiation score,[1]; library: Spectrum,inactive: 0
same,dopaminergic neuron differentiation score,[2]; library: Spectrum,inactive: 0
O=C(OCc1ccccc1)c1ccccc1,neuronal differentiation score,[1]; library: Spectrum,inactive: 0
same,dopaminergic neuron differentiation score,[2]; library: Spectrum,inactive: 0
N#C/C(=C\c1ccc(O)c(O)c1)C(=O)NCCc1ccccc1 [Tyrphostin AG 698],neuronal differentiation score,[1]; library: LOPAC,inactive: 0
same,dopaminergic neuron differentiation score,[2]; library: LOPAC,inactive: 1

# Some of the entries so far, tab-delimited:
smiles	measurement	setting	value
Cc1cn(C2OC[C@@H](O)[C@@H]2CO)c(=O)[nH]c1=O (stereo partly specified)	neuronal differentiation score	[1]; library: Natural	inactive: 0
Cc1n[nH]c(=O)[nH]c1=O [Azathymine, 6]	neuronal differentiation score	[1]; library: Phytochemical	inactive: 0
